The nature of this data set: Differential solvent extraction with ethyl acetate:cyclohexane ratios (Table P).
Where [1] appears, read: Ethyl Acetate : Cyclohexane Ratio 1:1.
The mark [2] stands for this setting: Ethyl Acetate : Cyclohexane Ratio 3:4.
[3] abbreviates: Ethyl Acetate : Cyclohexane Ratio 5.5:4.5.

Take `CCCCCc1cc(O[C@@H]2O[C@H](CO[C@@H]3O[C@H](CO)[C@@H](O)[C@H](O)[C@H]3O)[C@@H](O)[C@H](O)[C@H]2O)c2c(c1)OC(C)(C)[C@@H]1CCC(C)=C[C@@H]21` [VB310]: the Removed under setting [1] is 58.56%, the Removed under setting [2] came out at 31.86% and the Removed under setting [3] came to 66.18%.

As for `CCCCCc1cc(O[C@@H]2O[C@H](CO)[C@@H](O)[C@H](O)[C@H]2O)c2c(c1)OC(C)(C)[C@@H]1CCC(C)=C[C@@H]21` [VB302, Δ9THC-1-O-glucopyranoside], the Removed is given as 99.81% under setting [1], 99.09% under setting [2] and 99.81% under setting [3].

Take `CCCCCc1cc(O[C@@H]2O[C@H](CO[C@@H]3O[C@H](CO)[C@@H](O)[C@H](O)[C@H]3O)[C@@H](O[C@@H]3O[C@H](CO)[C@@H](O)[C@H](O)[C@H]3O)[C@H](O)[C@H]2O)c2c(c1)OC(C)(C)[C@@H]1CCC(C)=C[C@@H]21` [VB311]: the Purity is 87.54% under setting [1], 84.82% under setting [2] and 86.01% under setting [3]. In addition, the Recovered reads like this: under setting [1], 106.06%; under setting [2], 115.01%; under setting [3], 98.05%.

Values taken from patent US20230346952A1, “CANNABINOID GLYCOSIDE PRODRUGS AND METHODS OF SYNTHESIS” (priority 2015, published 2023).
